Data on one compound can be found in patent US12404241B2 (Celgene Corporation, priority 2018, dated 2025).

Protein sequences, listed by entry. Tags and fused reporters are not part of them.
UniProt P10275, whole entry: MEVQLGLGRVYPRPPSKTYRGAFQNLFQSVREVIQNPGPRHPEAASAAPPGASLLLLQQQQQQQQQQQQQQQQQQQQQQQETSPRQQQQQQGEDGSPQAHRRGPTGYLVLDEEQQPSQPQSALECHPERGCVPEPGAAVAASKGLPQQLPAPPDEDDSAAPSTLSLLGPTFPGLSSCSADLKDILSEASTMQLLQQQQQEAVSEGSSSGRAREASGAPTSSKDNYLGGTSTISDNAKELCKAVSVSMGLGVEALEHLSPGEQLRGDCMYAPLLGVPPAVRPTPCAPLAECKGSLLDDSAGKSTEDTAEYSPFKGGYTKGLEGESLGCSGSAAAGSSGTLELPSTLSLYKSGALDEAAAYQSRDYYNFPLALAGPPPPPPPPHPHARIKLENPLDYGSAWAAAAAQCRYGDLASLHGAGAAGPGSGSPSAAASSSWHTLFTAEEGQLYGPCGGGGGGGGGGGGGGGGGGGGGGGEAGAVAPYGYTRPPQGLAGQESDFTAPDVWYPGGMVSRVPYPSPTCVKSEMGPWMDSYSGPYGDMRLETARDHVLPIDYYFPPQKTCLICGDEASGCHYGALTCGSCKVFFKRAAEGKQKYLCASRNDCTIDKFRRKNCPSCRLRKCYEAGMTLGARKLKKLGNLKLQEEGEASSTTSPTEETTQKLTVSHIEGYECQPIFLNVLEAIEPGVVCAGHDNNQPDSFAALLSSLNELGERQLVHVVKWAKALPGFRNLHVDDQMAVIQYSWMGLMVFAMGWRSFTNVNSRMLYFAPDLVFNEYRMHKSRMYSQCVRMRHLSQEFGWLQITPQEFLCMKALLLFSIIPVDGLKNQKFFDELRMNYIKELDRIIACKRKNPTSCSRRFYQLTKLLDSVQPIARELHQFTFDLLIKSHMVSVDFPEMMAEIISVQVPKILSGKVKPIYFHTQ

The structures appear in SMILES notation. The structures given here were assigned with low confidence; some may be wrong.

For the test, the target named is AR (Homo sapiens, UniProt P10275). The test is described as follows: VCAP AR Degradation Assay. The procedure:
VCAP AR Degradation Assay. Test compounds were pre-dispensed into a Corning CellBind 96-well clear bottom plate (Cat #3300) using an acoustic dispenser to make a 10-point concentration series at 1:3 dilution for each compound. The final top concentration of each compound was 5 μM. DMSO at a final concentration of 0.1% was used as a control. VCaP cells cultured in DMEM with 8% fetal bovine serum (FBS) were seeded at 50K cells per well in a 200 μL volume into the compound plate and incubated at 37° C. in a CO2 incubator for 24 h. The medium was carefully removed from the cells and the plate was placed on ice. […] AR levels in compound-treated wells were normalized to that of DMSO control and expressed as percent of control (PoC) (y). […]
[formula] • A=YMin (lowest AR level normalized to DMSO control in response to compound treatment, as determined by curve fit) • B=YMax (maximum AR level as determined by curve fit) • C=EC50 • D=Hill Slope • x=compound concentration • EC50=the concentration of compound when y=(YMax−YMin)/2 • DC50=the concentration of the compound when y=50% of DMSO control (50% AR degradation) • y=AR protein level normalized to DMSO control
The lowest measured AR level normalized to DMSO control in response to compound treatment, termed Y value, was used to characterize the compound-mediated AR degradation efficiency.

In general, DC50 refers to the midpoint of the concentration-degradation curve. Read a high DC50 as degradation only at high concentration.

`CCc1cc(N2C(=O)N(c3ccc(C#N)c(C(F)(F)F)c3)C(=O)C2(C)C)ccc1OCCN1CCN(CC(=O)Nc2cccc(NC3CCC(=O)NC3=O)c2)CC1` (centres unmarked): where the note is “class symbols *, **”, the “Y (AR degradation efficiency, % of DMSO control)” value is listed as “** (25%<Y<=35%)”. The compound further returned a DC50 (class symbols A-C) below 100 nM.
